In the supplement of paper PMC10849652:
This is one part of the list.

Amino acid sequences for entries named in this document (tags omitted). A change or cut given only in a name is not applied to a line headed by its entry.
UniProt Q9NVZ3: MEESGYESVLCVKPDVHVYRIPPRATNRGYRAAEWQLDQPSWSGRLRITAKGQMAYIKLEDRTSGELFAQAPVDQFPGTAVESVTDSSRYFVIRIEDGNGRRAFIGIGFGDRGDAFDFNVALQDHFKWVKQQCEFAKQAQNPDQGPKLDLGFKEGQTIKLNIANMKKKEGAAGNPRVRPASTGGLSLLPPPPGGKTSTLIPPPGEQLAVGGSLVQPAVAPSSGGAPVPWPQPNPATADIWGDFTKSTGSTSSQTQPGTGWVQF
UniProt O75380, whole entry, looked up: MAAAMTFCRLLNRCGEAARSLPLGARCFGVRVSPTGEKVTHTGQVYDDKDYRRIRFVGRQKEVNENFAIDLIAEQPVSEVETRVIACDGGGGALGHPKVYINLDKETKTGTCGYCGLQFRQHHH
UniProt Q16718, whole entry, looked up: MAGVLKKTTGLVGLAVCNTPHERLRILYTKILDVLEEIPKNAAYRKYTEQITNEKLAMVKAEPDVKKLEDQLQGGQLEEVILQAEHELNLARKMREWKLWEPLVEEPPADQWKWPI
UniProt Q96NT1: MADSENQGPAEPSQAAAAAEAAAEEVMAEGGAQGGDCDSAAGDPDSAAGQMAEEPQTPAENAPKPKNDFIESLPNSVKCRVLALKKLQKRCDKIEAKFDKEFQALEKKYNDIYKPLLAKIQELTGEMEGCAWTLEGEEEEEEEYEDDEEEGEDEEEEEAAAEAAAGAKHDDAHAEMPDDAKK
UniProt P62166, whole entry, looked up: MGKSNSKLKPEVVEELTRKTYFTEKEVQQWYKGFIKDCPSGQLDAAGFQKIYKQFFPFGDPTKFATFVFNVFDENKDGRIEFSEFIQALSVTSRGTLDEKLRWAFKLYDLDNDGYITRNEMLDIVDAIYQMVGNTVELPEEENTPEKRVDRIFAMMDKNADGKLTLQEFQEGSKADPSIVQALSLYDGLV
UniProt Q6N069: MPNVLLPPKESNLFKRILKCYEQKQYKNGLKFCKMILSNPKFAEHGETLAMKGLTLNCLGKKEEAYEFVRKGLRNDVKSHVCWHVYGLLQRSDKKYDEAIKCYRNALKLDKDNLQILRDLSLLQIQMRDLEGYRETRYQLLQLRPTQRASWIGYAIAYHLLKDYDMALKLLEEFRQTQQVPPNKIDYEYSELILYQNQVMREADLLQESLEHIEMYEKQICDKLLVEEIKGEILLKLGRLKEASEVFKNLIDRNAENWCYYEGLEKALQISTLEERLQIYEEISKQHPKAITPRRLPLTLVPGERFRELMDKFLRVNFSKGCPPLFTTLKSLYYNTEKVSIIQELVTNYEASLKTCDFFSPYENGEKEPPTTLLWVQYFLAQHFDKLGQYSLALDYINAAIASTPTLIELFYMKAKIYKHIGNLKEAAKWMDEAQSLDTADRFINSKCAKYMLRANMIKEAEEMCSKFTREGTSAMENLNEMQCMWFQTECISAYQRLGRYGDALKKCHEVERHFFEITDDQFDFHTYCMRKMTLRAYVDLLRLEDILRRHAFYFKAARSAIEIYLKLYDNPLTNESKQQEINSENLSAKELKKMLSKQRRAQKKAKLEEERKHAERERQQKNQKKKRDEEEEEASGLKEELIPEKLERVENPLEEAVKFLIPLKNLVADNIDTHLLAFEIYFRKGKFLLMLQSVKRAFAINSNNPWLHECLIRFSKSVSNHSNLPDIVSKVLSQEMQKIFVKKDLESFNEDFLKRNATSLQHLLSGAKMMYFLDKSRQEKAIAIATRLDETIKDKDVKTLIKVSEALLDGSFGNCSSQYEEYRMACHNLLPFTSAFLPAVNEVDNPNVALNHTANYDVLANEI
UniProt Q92542, whole entry, looked up: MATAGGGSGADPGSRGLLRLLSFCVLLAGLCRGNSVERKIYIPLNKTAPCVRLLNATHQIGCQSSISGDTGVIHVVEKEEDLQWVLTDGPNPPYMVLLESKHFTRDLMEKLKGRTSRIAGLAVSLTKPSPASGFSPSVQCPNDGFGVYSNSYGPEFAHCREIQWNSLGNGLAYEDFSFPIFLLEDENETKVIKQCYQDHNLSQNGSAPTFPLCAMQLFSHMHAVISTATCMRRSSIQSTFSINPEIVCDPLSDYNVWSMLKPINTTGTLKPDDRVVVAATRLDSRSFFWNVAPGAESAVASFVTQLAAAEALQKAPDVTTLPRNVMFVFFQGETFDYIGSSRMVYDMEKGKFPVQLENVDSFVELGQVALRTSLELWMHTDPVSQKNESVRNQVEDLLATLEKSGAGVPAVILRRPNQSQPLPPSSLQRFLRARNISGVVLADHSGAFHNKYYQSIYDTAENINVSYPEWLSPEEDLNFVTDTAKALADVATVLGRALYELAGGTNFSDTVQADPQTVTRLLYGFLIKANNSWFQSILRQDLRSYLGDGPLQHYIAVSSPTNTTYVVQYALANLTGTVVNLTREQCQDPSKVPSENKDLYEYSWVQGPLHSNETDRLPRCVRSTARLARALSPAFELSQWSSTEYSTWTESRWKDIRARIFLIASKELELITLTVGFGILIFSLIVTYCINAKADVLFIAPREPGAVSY
UniProt P28331, whole entry, looked up: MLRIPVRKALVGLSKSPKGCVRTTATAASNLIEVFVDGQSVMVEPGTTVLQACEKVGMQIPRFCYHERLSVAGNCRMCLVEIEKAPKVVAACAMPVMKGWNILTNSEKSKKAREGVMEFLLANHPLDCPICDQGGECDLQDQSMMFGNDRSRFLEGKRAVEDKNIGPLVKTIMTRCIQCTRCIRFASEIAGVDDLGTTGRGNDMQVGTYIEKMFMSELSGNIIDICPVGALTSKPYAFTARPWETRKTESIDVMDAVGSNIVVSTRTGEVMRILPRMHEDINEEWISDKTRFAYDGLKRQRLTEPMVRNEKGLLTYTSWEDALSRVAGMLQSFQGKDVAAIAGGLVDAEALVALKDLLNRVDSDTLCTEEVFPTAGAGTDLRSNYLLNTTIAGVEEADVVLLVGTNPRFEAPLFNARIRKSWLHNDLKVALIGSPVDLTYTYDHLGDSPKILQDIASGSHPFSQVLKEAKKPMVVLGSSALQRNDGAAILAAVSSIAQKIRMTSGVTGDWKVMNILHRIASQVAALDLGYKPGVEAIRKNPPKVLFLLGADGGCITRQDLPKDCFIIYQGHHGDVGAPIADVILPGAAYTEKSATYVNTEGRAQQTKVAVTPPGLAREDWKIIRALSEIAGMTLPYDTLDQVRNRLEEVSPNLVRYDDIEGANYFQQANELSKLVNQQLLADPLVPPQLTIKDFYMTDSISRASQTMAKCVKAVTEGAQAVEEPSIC
UniProt P52298: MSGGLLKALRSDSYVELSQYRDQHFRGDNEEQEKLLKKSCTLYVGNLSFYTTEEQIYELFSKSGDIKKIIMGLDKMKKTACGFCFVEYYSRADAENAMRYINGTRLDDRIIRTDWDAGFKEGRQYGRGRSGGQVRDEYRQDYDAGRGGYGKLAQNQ
UniProt O95139, whole entry, looked up: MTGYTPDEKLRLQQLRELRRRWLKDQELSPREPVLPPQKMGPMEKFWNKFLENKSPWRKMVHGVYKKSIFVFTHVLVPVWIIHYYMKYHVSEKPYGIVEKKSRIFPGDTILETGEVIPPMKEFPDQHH
UniProt Q9UN36: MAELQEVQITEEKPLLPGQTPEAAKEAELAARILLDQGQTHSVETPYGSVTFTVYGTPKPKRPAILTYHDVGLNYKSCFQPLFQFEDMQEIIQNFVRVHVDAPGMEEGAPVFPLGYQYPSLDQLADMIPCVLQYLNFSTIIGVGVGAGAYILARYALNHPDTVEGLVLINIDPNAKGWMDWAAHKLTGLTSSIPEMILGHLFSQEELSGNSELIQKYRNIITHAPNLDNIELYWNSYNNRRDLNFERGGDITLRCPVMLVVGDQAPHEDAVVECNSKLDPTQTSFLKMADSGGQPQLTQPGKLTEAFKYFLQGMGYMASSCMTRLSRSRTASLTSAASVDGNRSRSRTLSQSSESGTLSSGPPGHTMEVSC
UniProt Q8IW45: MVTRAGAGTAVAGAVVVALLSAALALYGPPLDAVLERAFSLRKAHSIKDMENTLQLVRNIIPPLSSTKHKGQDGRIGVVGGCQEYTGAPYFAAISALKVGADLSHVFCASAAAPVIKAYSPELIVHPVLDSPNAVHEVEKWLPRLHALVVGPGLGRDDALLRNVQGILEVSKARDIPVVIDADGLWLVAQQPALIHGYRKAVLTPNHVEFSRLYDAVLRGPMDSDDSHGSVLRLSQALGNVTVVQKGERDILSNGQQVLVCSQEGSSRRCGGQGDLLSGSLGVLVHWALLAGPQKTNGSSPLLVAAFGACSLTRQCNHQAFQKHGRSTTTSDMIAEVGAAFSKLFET
UniProt Q5TEU4: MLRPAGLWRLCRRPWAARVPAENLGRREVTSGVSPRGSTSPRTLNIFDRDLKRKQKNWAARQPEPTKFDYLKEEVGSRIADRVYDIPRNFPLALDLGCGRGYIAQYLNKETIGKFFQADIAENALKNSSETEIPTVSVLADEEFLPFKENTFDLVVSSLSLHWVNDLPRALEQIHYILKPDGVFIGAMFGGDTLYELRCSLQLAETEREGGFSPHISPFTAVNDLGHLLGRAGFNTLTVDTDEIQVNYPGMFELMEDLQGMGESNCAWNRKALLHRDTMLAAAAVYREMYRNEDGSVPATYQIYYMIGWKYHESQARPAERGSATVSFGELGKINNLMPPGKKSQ
UniProt E9PAV3, whole entry, looked up: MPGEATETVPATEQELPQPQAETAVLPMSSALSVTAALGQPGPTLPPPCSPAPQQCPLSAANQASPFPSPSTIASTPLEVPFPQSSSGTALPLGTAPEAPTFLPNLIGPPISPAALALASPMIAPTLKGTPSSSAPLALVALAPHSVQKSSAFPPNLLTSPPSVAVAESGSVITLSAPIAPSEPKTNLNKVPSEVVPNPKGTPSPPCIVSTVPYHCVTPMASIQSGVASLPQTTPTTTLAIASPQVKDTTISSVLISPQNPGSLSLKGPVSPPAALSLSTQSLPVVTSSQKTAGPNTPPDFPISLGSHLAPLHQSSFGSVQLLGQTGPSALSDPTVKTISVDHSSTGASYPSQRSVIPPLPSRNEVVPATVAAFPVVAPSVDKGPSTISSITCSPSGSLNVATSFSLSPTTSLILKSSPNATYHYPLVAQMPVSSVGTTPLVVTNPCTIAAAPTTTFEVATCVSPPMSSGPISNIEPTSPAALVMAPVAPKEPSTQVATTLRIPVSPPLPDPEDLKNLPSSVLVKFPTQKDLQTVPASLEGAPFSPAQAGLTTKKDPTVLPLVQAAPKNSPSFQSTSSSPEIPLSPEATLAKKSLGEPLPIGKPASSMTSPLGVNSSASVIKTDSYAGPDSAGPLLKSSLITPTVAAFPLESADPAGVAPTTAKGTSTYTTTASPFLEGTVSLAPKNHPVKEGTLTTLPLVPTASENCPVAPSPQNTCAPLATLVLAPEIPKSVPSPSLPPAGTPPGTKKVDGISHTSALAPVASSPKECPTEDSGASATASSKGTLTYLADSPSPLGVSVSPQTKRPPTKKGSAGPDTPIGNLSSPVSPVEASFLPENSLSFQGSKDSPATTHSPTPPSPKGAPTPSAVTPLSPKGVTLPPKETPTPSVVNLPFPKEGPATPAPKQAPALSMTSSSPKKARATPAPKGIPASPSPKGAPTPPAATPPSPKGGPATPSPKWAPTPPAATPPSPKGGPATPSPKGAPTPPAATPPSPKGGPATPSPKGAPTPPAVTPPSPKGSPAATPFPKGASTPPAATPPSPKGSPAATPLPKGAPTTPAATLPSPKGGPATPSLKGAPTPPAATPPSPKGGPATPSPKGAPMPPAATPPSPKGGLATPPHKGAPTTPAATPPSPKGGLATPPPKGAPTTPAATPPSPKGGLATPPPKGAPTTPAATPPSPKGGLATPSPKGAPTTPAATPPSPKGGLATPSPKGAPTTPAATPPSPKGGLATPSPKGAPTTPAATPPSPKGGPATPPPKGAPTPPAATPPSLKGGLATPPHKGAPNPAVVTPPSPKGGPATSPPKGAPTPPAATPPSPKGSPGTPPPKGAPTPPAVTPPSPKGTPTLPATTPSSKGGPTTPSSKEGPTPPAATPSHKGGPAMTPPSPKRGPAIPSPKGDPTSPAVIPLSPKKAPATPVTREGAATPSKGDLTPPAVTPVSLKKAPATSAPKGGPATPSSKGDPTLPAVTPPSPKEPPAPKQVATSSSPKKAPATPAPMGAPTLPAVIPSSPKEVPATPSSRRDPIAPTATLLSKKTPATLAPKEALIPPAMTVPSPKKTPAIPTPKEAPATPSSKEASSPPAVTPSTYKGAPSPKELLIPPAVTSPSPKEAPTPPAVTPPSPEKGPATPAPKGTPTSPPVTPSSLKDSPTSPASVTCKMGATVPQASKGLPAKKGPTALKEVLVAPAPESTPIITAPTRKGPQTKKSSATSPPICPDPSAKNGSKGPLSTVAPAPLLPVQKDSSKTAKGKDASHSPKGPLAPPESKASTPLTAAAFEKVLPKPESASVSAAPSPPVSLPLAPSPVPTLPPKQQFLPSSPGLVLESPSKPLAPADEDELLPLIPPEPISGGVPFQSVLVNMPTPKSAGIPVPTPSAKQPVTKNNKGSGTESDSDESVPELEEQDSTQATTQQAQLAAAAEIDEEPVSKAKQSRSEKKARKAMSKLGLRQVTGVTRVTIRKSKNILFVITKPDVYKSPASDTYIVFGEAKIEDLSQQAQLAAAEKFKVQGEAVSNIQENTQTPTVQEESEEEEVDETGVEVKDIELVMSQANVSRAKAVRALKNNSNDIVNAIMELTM

Key:
Assay in all cases: log2 fold change, soluble protein after heating vs DMSO (PISA); higher = thermal stabilisation; K562 cells, 10 uM, 30 min; active = over 0.2 and 3.5 SD of the protein, either way, in both replicates (recomputed)
[1] = compound: NC(=O)Nc1cc(-c2cccc(F)c2)sc1C(=O)N[C@H]1CCCNC1
How it was run: (§1)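 Soluble protein was quantified by TMTpro 16plex LC-MS/MS after channel sums were equalised. It was obtained as the supernatant after 21,000xg for 90 min from pooled aliquots of K562 cells (2×10^6 cells/mL, 10 μM compound, 30 min) heated for 3 min across 48°C-58°C and extracted in PBS with 0.5% NP-40 at 4°C. Thermal stability values are relative to control samples and come from duplicates. They are given as log2 fold changes.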

[2] = compound: NC(=O)c1cnc(N[C@@H]2CCCC[C@@H]2N)nc1Nc1cccc(-n2nccn2)c1
How it was run: as §1

[3] = compound: NC1(c2ccc(-c3nc4ccn5c(=O)[nH]nc5c4cc3-c3ccccc3)cc2)CCC1
How it was run: as §1

[4] = compound: NCC(=O)Nc1ccc(-n2nc(C(F)(F)F)cc2-c2ccc3c(ccc4ccccc43)c2)cc1
How it was run: as §1

entinostat = compound: Nc1ccccc1NC(=O)c1ccc(CNC(=O)OCc2cccnc2)cc1 [entinostat]
How it was run: as §1

vorinostat = compound: O=C(CCCCCCC(=O)Nc1ccccc1)NO [vorinostat]
How it was run: as §1

citarinostat = compound: O=C(CCCCCCNC(=O)c1cnc(N(c2ccccc2)c2ccccc2Cl)nc1)NO [citarinostat]
How it was run: as §1

silmitasertib = compound: O=C(O)c1ccc2c(c1)nc(Nc1cccc(Cl)c1)c1ccncc12 [silmitasertib]
How it was run: as §1

[5] = compound: O=C1NC(=O)C(c2cnc3ccccn23)=C1c1cn2c3c(cc(F)cc13)CN(C(=O)N1CCCCC1)CC2
How it was run: as §1

[6] = compound: c1cc(OCCN2CCCCC2)cc(-c2n[nH]c3ccc(-c4nnc[nH]4)cc23)c1
How it was run: as §1

entospletinib = compound: c1cn2cc(-c3ccc4cn[nH]c4c3)nc(Nc3ccc(N4CCOCC4)cc3)c2n1 [entospletinib]
How it was run: as §1

Measured: log2 fold change

NECAP2 (UniProt Q9NVZ3)
inactive: [1] -0.029 | [2] 0 | [3] -0.086 | [4] -0.02 | entinostat 0.055 | vorinostat 0.006 | citarinostat 0.062 | silmitasertib -0.042 | [5] 0 | [6] -0.012 | entospletinib -0.001

NDUFAF7 (UniProt Q7L592)
inactive: [1] -0.058 | [2] -0.134 | [3] -0.109 | [4] -0.078 | entinostat -0.019 | vorinostat -0.051 | citarinostat 0.133 | silmitasertib -0.161 | [5] -0.076 | [6] -0.023 | entospletinib -0.026

NDUFA10 (UniProt O95299)
inactive: [1] -0.059 | [2] 0.015 | [3] -0.105 | [4] -0.033 | entinostat 0 | vorinostat 0.061 | citarinostat 0.024 | silmitasertib -0.012 | [5] -0.067 | [6] -0.032 | entospletinib 0.006

NCLN (UniProt Q969V3)
inactive: [1] 0.007 | [2] 0.022 | [3] -0.034 | [4] 0.014 | entinostat 0.007 | vorinostat 0.012 | citarinostat 0.029 | silmitasertib 0.011 | [5] -0.015 | [6] -0.04 | entospletinib -0.006

NDUFS6 (UniProt O75380)
inactive: [1] 0.019 | [2] 0.044 | [3] 0.013 | [4] 0 | entinostat -0.092 | vorinostat -0.076 | citarinostat -0.069 | silmitasertib -0.009 | [5] 0.088 | [6] -0.025 | entospletinib 0.125

NDUFA5 (UniProt Q16718)
inactive: [1] -0.071 | [2] -0.086 | [3] -0.058 | [4] -0.076 | entinostat 0.078 | vorinostat -0.028 | citarinostat 0.025 | silmitasertib -0.025 | [5] -0.225 | [6] -0.064 | entospletinib 0.071

NDUFAF4 (UniProt Q9P032)
inactive: [1] -0.008 | [2] -0.055 | [3] -0.088 | [4] -0.022 | entinostat 0.018 | vorinostat -0.01 | citarinostat 0.076 | silmitasertib -0.015 | [5] -0.042 | [6] -0.007 | entospletinib 0.025

NARF (UniProt Q9UHQ1)
inactive: [1] -0.052 | [2] -0.034 | [3] -0.008 | [4] -0.012 | entinostat 0.003 | vorinostat -0.044 | citarinostat 0.022 | silmitasertib 0.047 | [5] -0.067 | [6] -0.023 | entospletinib -0.03

NAP1L5 (UniProt Q96NT1)
inactive: [1] 0.117 | [2] 0.056 | [3] -0.058 | [4] -0.011 | entinostat 0.038 | vorinostat 0.026 | citarinostat 0.053 | silmitasertib 0.055 | [5] -0.013 | [6] 0.069 | entospletinib -0.121

NARS1 (UniProt O43776)
inactive: [1] -0.013 | [2] 0.007 | [3] 0.091 | [4] 0.03 | entinostat -0.016 | vorinostat -0.005 | citarinostat -0.048 | silmitasertib -0.013 | [5] -0.015 | [6] -0.007 | entospletinib 0.001

NCS1 (UniProt P62166)
inactive: [1] -0.02 | [2] -0.052 | [3] -0.098 | [4] -0.007 | entinostat 0.002 | vorinostat -0.027 | citarinostat -0.005 | silmitasertib 0.044 | [5] 0.011 | [6] -0.031 | entospletinib 0.04

NAA16 (UniProt Q6N069)
inactive: [1] -0.044 | [2] 0.038 | [3] -0.032 | [4] 0.036 | entinostat -0.016 | vorinostat 0.043 | citarinostat -0.005 | silmitasertib -0.012 | [5] -0.001 | [6] -0.092 | entospletinib 0.004

NCSTN (UniProt Q92542)
inactive: [1] -0.076 | [2] -0.051 | [3] -0.001 | [4] -0.004 | entinostat 0.004 | vorinostat -0.034 | citarinostat 0.037 | silmitasertib 0.041 | [5] 0.054 | [6] -0.146 | entospletinib -0.044

NDUFS1 isoform 2 (UniProt P28331)
inactive: [1] -0.013 | [2] 0.003 | [3] -0.154 | [4] -0.043 | entinostat 0.007 | vorinostat 0.025 | citarinostat 0.018 | silmitasertib -0.066 | [5] -0.061 | [6] -0.051 | entospletinib 0.026

NCBP2 (UniProt P52298)
inactive: [1] -0.048 | [2] 0.023 | [3] -0.043 | [4] -0.041 | entinostat 0.013 | vorinostat -0.024 | citarinostat 0.08 | silmitasertib 0.022 | [5] -0.039 | [6] -0.078 | entospletinib 0.002

NAA20 (UniProt P61599)
inactive: [1] -0.036 | [2] -0.019 | [3] -0.112 | [4] -0.01 | entinostat 0.022 | vorinostat 0.006 | citarinostat -0.025 | silmitasertib 0 | [5] -0.004 | [6] -0.056 | entospletinib 0.035

NDUFB6 (UniProt O95139)
inactive: [1] -0.037 | [2] -0.106 | [3] -0.026 | [4] -0.11 | entinostat -0.032 | vorinostat -0.03 | citarinostat 0.036 | silmitasertib 0.053 | [5] -0.069 | [6] -0.104 | entospletinib -0.051

NEDD1 isoform 3 (UniProt Q8NHV4)
inactive: [1] 0.004 | [2] -0.012 | [3] -0.037 | [4] -0.012 | entinostat 0.011 | vorinostat 0.075 | citarinostat -0.034 | silmitasertib -0.025 | [5] -0.015 | [6] 0.025 | entospletinib -0.022

NDUFV3 (UniProt P56181)
inactive: [1] 0.053 | [2] 0.036 | [3] 0.019 | [4] -0.137 | entinostat 0.012 | citarinostat 0.059 | silmitasertib -0.013 | [5] 0.021 | [6] -0.001 | entospletinib -0.025

NDRG2 (UniProt Q9UN36)
inactive: [1] -0.015 | [2] 0.018 | [3] -0.018 | [4] -0.099 | entinostat 0 | vorinostat 0.021 | citarinostat 0.057 | silmitasertib -0.027 | [5] -0.024 | [6] -0.08 | entospletinib -0.04

NACA4P (UniProt Q9BZK3)
inactive: [1] 0.19 | [2] 0.018 | [3] -0.057 | [4] -0.032 | entinostat 0.03 | citarinostat -0.025 | silmitasertib 0.028 | [5] 0.116 | [6] 0.064 | entospletinib -0.044

NAXD (UniProt Q8IW45)
inactive: [1] 0.047 | [2] 0.042 | [3] 0.021 | [4] 0.014 | entinostat -0.065 | vorinostat -0.018 | citarinostat -0.009 | silmitasertib -0.043 | [5] -0.001 | [6] -0.1 | entospletinib 0.008

NAT14 (UniProt Q8WUY8)
inactive: [1] 0.038 | [2] -0.135 | [3] -0.108 | [4] -0.33 | entinostat -0.033 | citarinostat 0.04 | silmitasertib 0 | [5] -0.037 | [6] -0.108

NCK1 (UniProt P16333)
inactive: [1] -0.118 | [2] -0.247 | [3] -0.056 | [4] -0.112 | entinostat 0.085 | silmitasertib 0.077 | [5] -0.194

2 records picked at random from the list so far:
NDRG2 (UniProt Q9UN36)
inactive: [1] -0.015 | [2] 0.018 | [3] -0.018 | [4] -0.099 | entinostat 0 | vorinostat 0.021 | citarinostat 0.057 | silmitasertib -0.027 | [5] -0.024 | [6] -0.08 | entospletinib -0.04

NCK1 (UniProt P16333)
inactive: [1] -0.118 | [2] -0.247 | [3] -0.056 | [4] -0.112 | entinostat 0.085 | silmitasertib 0.077 | [5] -0.194

Next part:

NEBL (UniProt O76041)
inactive: [1] -0.015 | [2] -0.069 | [3] 0.055 | [4] -0.001 | entinostat -0.001 | citarinostat -0.022 | silmitasertib -0.02 | [5] -0.056 | [6] -0.097 | entospletinib -0.064

NDUFAF5 (UniProt Q5TEU4)
inactive: [1] 0.011 | [2] -0.027 | [3] -0.066 | [4] -0.026 | entinostat 0.038 | vorinostat 0.069 | citarinostat 0.014 | silmitasertib 0.071 | [5] -0.074 | [6] -0.036 | entospletinib 0.023

NACA (UniProt E9PAV3)
inactive: [1] 0.037 | [2] 0.04 | [3] 0.044 | [4] 0.024 | entinostat -0.033 | vorinostat -0.008 | citarinostat 0.027 | silmitasertib 0.001 | [5] -0.008 | [6] -0.067 | entospletinib -0.014

NAA35 (UniProt Q5VZE5)
inactive: [1] -0.012 | [2] -0.045 | [3] -0.082 | [4] 0.019 | entinostat 0.012 | vorinostat 0.074 | citarinostat 0.035 | silmitasertib -0.05 | [5] 0.004 | [6] -0.041 | entospletinib -0.023
